The source of these data is the supplement of paper PMC12823440, “Inhibitors supercharge kinase turnover through native proteolytic circuits” (Nature, 2025).

The chains behind the UniProt entries cited, without tags or fusion partners. Where a name states a change or a piece, a line headed by the entry shows the natural chain unless it says otherwise.
UniProt P42680: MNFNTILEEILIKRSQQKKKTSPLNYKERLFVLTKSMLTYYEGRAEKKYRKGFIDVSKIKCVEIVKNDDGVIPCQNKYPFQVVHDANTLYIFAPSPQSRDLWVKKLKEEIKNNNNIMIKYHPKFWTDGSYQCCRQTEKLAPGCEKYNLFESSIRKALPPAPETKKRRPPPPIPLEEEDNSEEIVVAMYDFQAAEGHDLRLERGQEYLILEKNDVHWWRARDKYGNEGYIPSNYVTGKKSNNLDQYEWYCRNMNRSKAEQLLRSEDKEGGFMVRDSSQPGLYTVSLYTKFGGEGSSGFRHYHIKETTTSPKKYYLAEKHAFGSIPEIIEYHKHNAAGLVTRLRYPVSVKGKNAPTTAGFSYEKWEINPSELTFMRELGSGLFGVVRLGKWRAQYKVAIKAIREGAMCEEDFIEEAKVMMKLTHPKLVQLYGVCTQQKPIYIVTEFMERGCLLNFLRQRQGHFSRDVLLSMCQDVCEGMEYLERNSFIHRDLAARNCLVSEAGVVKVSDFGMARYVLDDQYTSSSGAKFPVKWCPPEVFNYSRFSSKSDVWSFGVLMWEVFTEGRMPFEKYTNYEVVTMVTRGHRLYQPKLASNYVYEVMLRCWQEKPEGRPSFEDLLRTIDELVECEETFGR

Counter-ions that a name gives are not always drawn. This is one part of the list. Hit calls seldom repeat between salt and free forms of one compound.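 Kinases, fused to nanoluciferase, were expressed in K562 cells; luminescence was measured every 4 h from 2 to 18 h as percent of control (DMSO = 100%, positive control = 0%). A time point is decreased if signal falls significantly (2 sigma). Hits were called by the authors by a rule that is not shown; the count of time points alone does not decide it.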

In this experiment the target is TEC (UniProt P42680). Kind of experiment: kinase-Nluc reporter destabilization hit call (1 = scored as downregulated) (binary); higher = compound decreases kinase abundance. The conditions noted are these: K562; 2-18 h.
As to `CN1CC[C@@H](c2c(O)cc(O)c3c(=O)cc(-c4ccc(C(F)(F)F)cc4Cl)oc23)[C@@H]1CO` [Voruciclib (hydrochloride)] (10 µM), the “kinase-Nluc reporter destabilization hit call” value is inactive: 0.
The same measure for `O=c1cc(-c2cccc3c2Sc2ccccc2S3)oc(N2CCOCC2)c1` (10 µM): inactive: 0; for `O=[N+]([O-])c1ccc(Nc2nc(N3CCOCC3)nc(N3CCOCC3)n2)cc1` (10 µM): inactive: 0; for `c1ccc(-c2nc(=NCCN3CCOCC3)sn2-c2ccccc2)cc1` [VP3.15 (dihydrobromide)] (10 µM): inactive: 0.
For `Nc1nc(N)c2nc(-c3cccc(O)c3)cnc2n1` (10 µM), the “kinase-Nluc reporter destabilization hit call” value was inactive: 0.
The same measure for `Nc1ncnc2c1c(-c1ccc(Oc3ccccc3)cc1)nn2C1CCN(CCOCCOCCOc2ccc3c(c2)CN(C2CCC(=O)NC2=O)C3=O)CC1` (configuration not stated) (2.5 µM): active: 1; for `C=CC(=O)N1C[C@H](COc2nc(Nc3cnn(C)c3)nc3[nH]cc(Cl)c23)[C@@H](OC)C1` (2.5 µM): inactive: 0; for `Cc1nn(C)c2c1C(c1ccc(C(F)(F)F)cc1)C(C#N)=C(N)O2` (configuration not stated) (10 µM): inactive: 0.
The same measure for `O=C(NC1CCOCC1)c1ccc(-c2cc(-c3c[nH]nc3-c3ccccn3)ccn2)cc1` (10 µM): inactive: 0; for `CC/C(=N\NC(=O)c1ccnc(NCCCN2CCOCC2)c1)c1ccc(Cl)cc1O` (2.5 µM): inactive: 0.
The same measure for `COc1cc(N2CCOCC2)ccc1Nc1ncc(Cl)c(Nc2ccccc2NS(C)(=O)=O)n1` (2.5 µM): inactive: 0; for `Cn1cnc([N+](=O)[O-])c1C[N+](C)(C)C/C=C/C(=O)Nc1cc2c(Nc3ccc(Cl)c(Br)c3)ncnc2cn1` [Tarloxotinib (bromide)] (10 µM): inactive: 0.
